In patent US20210101945A1 (University of Washington, published 2021):
No constants are given. Whether binding was seen depends on the method and setting. Some entries that bind do so weakly or less than the wild type. Values belong to the binder of their own block, whether it stands above or below them.

Columns and labels:
Assay in all cases: in vitro oligomeric state (SEC-MALS, FIG. 5G); homotrimer
[1] = target: 2L6HC3_XBXA
[2] = target: 2L6HC3_AXBX
[3] = target: 2L6HC3_AXAX
[4] = target: 2L6HC3_AXXB
[5] = target: 2L6HC3_XAAA

B2: 2L6HC3_AXBX (designed binder)
chain: GTKYKIREMLEEAKRSLEELRRILEKLKESLRELRRNPSEDALVNNNEVIVKAIEASVENQRIIIELARMLAESD
- binding [2]: binds

B3: 2L6HC3_AXAX (designed binder)
chain: GTKYEIREALKEAQKQLEDLKRMLDELRRNLEELKRNPSEDALVENNELIVRVLEVIVENNRSIIEILKLLAKSD
- binding [3]: binds

B4: 2L6HC3_AXXB (designed binder)
chain: GTKYRIKDTLRELKRALEELKKILEELQRSLEELRRNPSEDALVNNNEVIVKAIEAAVRAIEISAENQRMLAESD
- binding [4]: binds

Continued, values first:

- binding [1]: binds
B1: 2L6HC3_XBXA (designed binder)
chain: GTKYELRRQLEELEKLLRELRKSLDELRKILEELERNPSEDVIVRAIKASVKNQEIIVEVLRAIIENNKTIAKSD

- binding [5]: binds
B5: 2L6HC3_XAAA (designed binder)
chain: GTKYEARKQLEEMKKQLKDLKRSLERLREILERLEENPSEDVIVEAIRAIVENNKQIVENNRSIIENNETIIRSD
